Data published in PubChem BioAssay AID504648 (National Center for Advancing Translational Sciences (NCATS), 2011).
Screen size: about 390,000 compounds; about 610 (0.16%) were called active. This list was built around the results that the source calls inconclusive (neither active nor inactive); the mix of calls is not that of the screen. Calls follow the shape of the dose curve; as a rule, active = well fitted inhibition curve with a large enough effect; inconclusive = small, poorly fitted or top-dose-only effect, or effect the other way, or another doubt; inactive = no such curve, though single readings can be large or run the other way. A potency beside an inconclusive call is a rough fit, not a confirmed value.

Assay: Nrf2 qHTS screen for inhibitors: counterscreen for cytotoxicity
Conditions: A549 ARE-Fluc cells, CellTiter-Fluor viability, 18-24 h; activity change, negative = cytotoxicity: at 46 µM (top of the series)
Method in brief: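 Cytotoxicity counterscreen: CellTiter-Fluor fluorescence was measured in A549 ARE_Fluc cells after 18-24 h of compound exposure in a concentration series. The subsequent BugLite luminescent read reports ARE-luciferase activity.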
% is scaled to controls: 0 for no effect and ±100 for the full control effect; potency is read from the fitted curve at half-maximal effect.

| Structure (SMILES) | Potency | activity change, negative = cytotoxicity |
| --- | --- | --- |
| CN(C)/C(CN1CCN(C=O)CC1)=C1\N=C(c2ccccc2)OC1=O | inactive | – |
| C/C(=N\NC(=O)c1ccccc1F)c1ccccn1 | inconclusive: 29.1 µM [falling, single point] | – |
| CCOC(=O)C(C)Sc1nc2c(cnn2-c2ccc(C)cc2)c(=O)[nH]1 (centres undefined) | inconclusive: 29.1 µM [falling, single point] | – |
| CCCn1c(N2CCN(Cc3ccc(Cl)cc3)CC2)nc2ccccc21 | inconclusive: 18.4 µM [falling, partial curve, poor fit] | – |
| CCOC(=O)CNC(=S)N(Cc1ccccc1F)C1CCCCC1 | inconclusive: 16.4 µM [falling, single point] | – |
| COc1ccc(-c2csc(NC(C)c3nc4cc(Cl)c(Cl)cc4n3CCCO)n2)cc1 (centres undefined) | inconclusive: 20.6 µM [falling, partial curve, poor fit] | – |
| COC(=O)C(NC(=O)c1ccccc1Cl)(Nc1ncc(S(=O)(=O)c2ccc([N+](=O)[O-])cc2)s1)C(F)(F)F (centres undefined) | inactive | – |
| COCCn1c(C)cc(/C=C2/SC(=O)N(CC(=O)N3CCCC3)C2=O)c1C | inconclusive: 20.6 µM [falling, partial curve, poor fit] | – |
| CC(C)C(=O)Nc1c(C(=O)N2CCN(c3ccccc3F)CC2)oc2ccccc12 | inactive | – |
| CC(C)CC(=O)Nc1ccccc1N1CCN(c2ccccc2)CC1 | inconclusive: 25.9 µM [activator, partial curve, poor fit] | – |
| Cc1ccc(CSc2nc3ccncc3n2Cc2nc(-c3ccc(Cl)cc3)oc2C)cc1 | inconclusive: 32.6 µM [falling, partial curve, poor fit] | – |
| Cc1ccccc1OCc1nnc(SCC(=O)Nc2ccc(N3CCOCC3)cc2)n1C | inconclusive: 18.4 µM [activator, single point] | – |
| C[C@H]1C(=O)N(S(=O)(=O)c2ccccc2[N+](=O)[O-])[C@H]1c1ccc(-c2ccccc2)cc1 | inactive | – |
| COC(=O)c1cc2ccccc2c(-c2c(OC)c(C(=O)OC)cc3ccccc23)c1OC | inconclusive: 18.4 µM [falling, single point] | – |
| C=CCN(c1ccccc1)S(=O)(=O)c1cccc(C(=O)N2CC(C)CC(C)C2)c1 (centres undefined) | inconclusive: 20.6 µM [falling, partial curve, poor fit] | – |
| Cn1nc([N+](=O)[O-])c(C(C#N)c2ccccn2)c(Cl)c1=O (centres undefined) | inconclusive: 14.6 µM [falling, partial curve, poor fit] | – |
| Cc1cccc(Cn2c(NCCO)nc3c2c(=O)n(C)c(=O)n3C)c1 | inactive | – |
| O=C(N/N=C/c1cccnc1)c1cc2ccccc2o1 | inconclusive: 29.1 µM [activator, single point] | – |
| O=C(Nc1ccc(F)cc1)c1ccc(S(=O)(=O)NCC2CCCO2)cc1 (centres undefined) | active: 23.1 µM | – |
| CCSc1nc(N)c2c(C)c(C)sc2n1 | inconclusive: 25.9 µM [falling, single point] | – |
| Cc1ccc(N(C(=O)Cc2cccs2)C(C(=O)NC2CCCCC2)c2ccccn2)cc1C (centres undefined) | inconclusive: 29.1 µM [falling, single point] | – |
| CC(=O)N1N=C(c2ccc(Br)cc2)OC1(C)CC(=O)Nc1ccccc1 (centres undefined) | inconclusive: 20.6 µM [falling, single point] | – |

| Structure (SMILES) | Potency | activity change, negative = cytotoxicity |
| --- | --- | --- |
| COc1ccc(-c2oc(NC(=O)CSc3nncn3C)c(C#N)c2-c2ccc(OC)cc2)cc1 | inconclusive: 32.6 µM [falling, single point] | – |
| Cc1ccc(NC(=O)N2CCC(CN3CCCCCC3)CC2)c(Cl)c1 | inactive | – |
| CCOC(=O)/C(=C\c1ccc(OC(F)F)cc1)C1=Nn2c(nnc2-c2ccc(Cl)cc2)SC1 | inconclusive: 20.6 µM [falling, single point] | – |
| COc1ccc(CC(=O)c2ccc(OC3OC(CO)C(O)C(O)C3O)cc2O)cc1 (centres undefined) | inactive | – |
| NC(=O)c1ccsc1NC(=O)c1ccc(S(=O)(=O)N2CCCc3ccccc32)cc1 | inconclusive: 14.6 µM [falling, partial curve, poor fit] | – |
| CCn1ccc2cc(S(=O)(=O)N3CCCN(C(=O)Nc4ccc(C)cc4)CC3)ccc21 | inactive | – |
| CCN(CC)CC(C)(C)C(=O)/C=C/c1ccc(/C=C/C(=O)C(C)(C)CN(CC)CC)cc1 | active: 16.4 µM | – |
| Nc1c(Cl)cc(C2=NCCn3c2c2ccc([N+](=O)[O-])cc2[n+]3[O-])cc1Cl | inconclusive: 32.6 µM [falling, partial curve, poor fit] | – |
| COc1ccccc1NS(=O)(=O)c1cc(NC(=O)c2ccc(NC(C)=O)cc2)ccc1N1CCOCC1 | inactive | – |
| Cc1cc(N=Cc2c(O)n(-c3ccc4c(c3)OCO4)c(=O)c3ccccc23)ccn1 | inconclusive: 9.2 µM [falling, partial curve, poor fit] | – |
| COC(=O)c1cccc(NC(=S)N2CCN(C)CC2)c1 | inactive | – |
| CSc1nnc(NC(=O)c2nc(S(=O)(=O)Cc3ccc(C)cc3)ncc2Cl)s1 | inconclusive: 29.1 µM [falling, single point] | – |
| COc1ccccc1-c1cc(C(F)(F)F)nc(S(=O)(=O)CCCC(=O)NC(C)C)n1 | inconclusive: 29.1 µM [falling, single point] | – |
| O=C(Nc1nc(-c2ccccn2)cs1)c1cccc(S(=O)(=O)N2CCOCC2)c1 | inconclusive: 14.6 µM [falling, partial curve] | – |
| CCC1=NN2C(=N)/C(=C\c3ccc(SCc4ccco4)o3)C(=O)N=C2S1 | inconclusive: 16.4 µM [falling, partial curve, poor fit] | – |
| CCc1ccccc1NC(=O)CSc1nc2n[nH]c(C)c2c(=N)n1-c1cccc(OC)c1 | inconclusive: 29.1 µM [falling, single point] | – |
| Cc1ccc(NC(=O)Cn2ncc3c4ccccc4n(Cc4ccccc4)c3c2=O)cc1Cl | inactive | – |
| O=C(N/N=C/c1cccc(Oc2ccccc2)c1)c1cccc(Br)c1 | – | inactive: 0% [at 1.84 µM] |
| Cc1ccc(-c2cnc(NCc3c(F)cccc3Cl)n2C)cc1 | inactive | – |
| COc1ccccc1NC(=O)Nc1nc(CC(=O)NCc2c(F)cccc2F)cs1 | inconclusive: 18.4 µM [falling, partial curve, poor fit] | – |
| Cc1ccc(C)c(C(C)NC(=S)NC2CCCCC2)c1 (centres undefined) | inconclusive: 10.3 µM [activator, partial curve, poor fit] | – |
| CC1CCCCN1S(=O)(=O)c1ccc(C(=O)Nc2nnc(-c3ccco3)o2)cc1 (centres undefined) | inconclusive: 16.4 µM [falling, single point] | – |

Quoted from the listing:
Potency, Cc1ccc(CSc2nc3ccncc3n2Cc2nc(-c3ccc(Cl)cc3)oc2C)cc1 is entered as inconclusive: 32.6 µM [falling, partial curve, poor fit]
Potency, CCOC(=O)CNC(=S)N(Cc1ccccc1F)C1CCCCC1 is entered as inconclusive: 16.4 µM [falling, single point]
Potency, Cn1nc([N+](=O)[O-])c(C(C#N)c2ccccn2)c(Cl)c1=O (centres undefined) is entered as inconclusive: 14.6 µM [falling, partial curve, poor fit]
Potency, COc1ccc(-c2csc(NC(C)c3nc4cc(Cl)c(Cl)cc4n3CCCO)n2)cc1 (centres undefined) is entered as inconclusive: 20.6 µM [falling, partial curve, poor fit]

The results go on.

| Structure (SMILES) | Potency | activity change, negative = cytotoxicity |
| --- | --- | --- |
| COc1ccc(N2CCN(C(=S)Nc3cccc(C)c3C)CC2)cc1 | inconclusive: 20.6 µM [falling, single point] | – |
| Cc1cccc(CNc2ncnc3ccc(-c4ccc5c(c4)OCCO5)cc23)c1 | inconclusive: 29.1 µM [falling, single point] | – |
| CS(=O)(=O)N1CCCC(c2nc(-c3ccc(S(=O)(=O)NCc4ccccc4)cc3)no2)C1 (centres undefined) | inconclusive: 23.1 µM [falling, partial curve, poor fit] | – |
| OC[C@@H]1[C@@H](c2ccc(F)cc2)C(c2ccccc2)=NN1c1ccccc1 | inconclusive: 13 µM [activator, partial curve, poor fit] | – |
| Cc1cc(C)c(-c2csc(NC(=O)CCCc3nc4ccccc4c(=O)[nH]3)n2)c(C)c1 | inconclusive: 16.4 µM [falling, single point] | – |
| COc1ccc(OCc2nc(C#N)c(NCc3ccccc3Cl)o2)cc1 | inactive | – |
| Cc1cc(SCC(=O)Nc2nsc(-c3ccc(C(C)(C)C)cc3)n2)nc2ccccc12 | inconclusive: 29.1 µM [falling, single point] | – |
| O=C(NCc1ccc2c(c1)OCO2)c1ccc(NS(=O)(=O)c2ccc3c(c2)OCCO3)cc1 | inconclusive: 20.6 µM [activator, partial curve, poor fit] | – |
| CCc1ccc(C2NC(=S)NC3=C2C(=O)N(c2ccccc2OC)C(c2ccc(CC)cc2)N3)cc1 (centres undefined) | inconclusive: 29.1 µM [falling, single point] | – |
| CC(=O)Nc1ccc(Nc2nc(-c3cc4ccccc4oc3=O)cs2)cc1 | inactive | – |
| CC(C)c1ccc(/C=C/C(=O)NCCC2=CCCCC2)cc1 | inactive | – |
| CC(=O)Nc1ccc(S(=O)(=O)Nc2nc3n(n2)C(c2ccccc2)C=C(c2ccc(Cl)cc2)N3)cc1 (centres undefined) | inconclusive: 20.6 µM [activator, single point] | – |
| Cc1cccc(-n2c(SCC(=O)Nc3cccc(S(=O)(=O)NC4=NCCCCC4)c3)nc3ccccc3c2=O)c1C | inconclusive: 8.2 µM [falling, partial curve] | – |
| CCOCCc1nn2c(=O)cc(COC(=O)c3cccc(C)c3)nc2s1 | inactive | – |
| O=C(NCC(c1ccco1)N1CCCCC1)c1ccc([N+](=O)[O-])s1 (centres undefined) | inconclusive: 23.1 µM [falling, single point] | – |
| CCOC(=O)c1c(NC(=O)CSc2cn(CCNC(=O)c3c(F)cccc3F)c3ccccc23)sc2c1CCCC2 | inactive | – |
| COc1ccc(NS(=O)(=O)c2ccc(C)c(C(=O)NNC(=O)c3ccccc3O)c2)cc1 | inactive | – |
| Cc1ccc(Cn2c(CN3CCC(C(=O)NCC(C)c4ccccc4)CC3)cc3ccccc32)cc1 (centres undefined) | inconclusive: 29.1 µM [falling, partial curve, poor fit] | – |
| O=C(CSc1nc(-c2ccccc2)c(-c2ccccc2)[nH]1)Nc1nccs1 | inconclusive: 29.1 µM [falling, single point] | – |
| CC(C)(C)NS(=O)(=O)c1ccc2nc(NC(=O)Cc3cccs3)sc2c1 | inconclusive: 18.4 µM [falling, partial curve, poor fit] | – |
